According to the supplement of paper PMC7238544:
Structures can show the parent of a compound that is named as a salt. ± gives the standard deviation of the averaged measurements. Some of the results follow. The data scatter; read single values as rough.

system: hAMSC donor 2; experiment: transgenic luciferase activity (RLU/mg protein) fold change vs vehicle control (ratio); hAMSC are human adipose-derived mesenchymal stem cells given an EGFP-luciferase plasmid by lipofection; higher = more transgene expression; settings: priming compound concentration 0.2 µM

Row | SMILES | transgenic luciferase activity
1 | FC(F)(F)c1cccc(N2CCNCC2)c1 [TFMPP hydrochloride] | 0.66 ± 0.17
2 | CN(C)C(=O)Oc1ccc[n+](C)c1 [Pyridostigmine bromide] | 0.81 ± 0.1
3 | Oc1cc(Cl)ccc1Oc1ccc(Cl)cc1Cl [Triclosan] | 0.792 ± 0.15
4 | CCOC(=O)C1(c2ccccc2)CCN(CCC(C#N)(c2ccccc2)c2ccccc2)CC1 [Diphenoxylate hydrochloride] | 0.624 ± 0.21
5 | CCCCC/C=C\C/C=C\C/C=C\C/C=C\CCCC(=O)Nc1ccc(O)cc1 | 0.546 ± 0.45
6 | CCCCCCCCCOc1ccc2[nH]cc(CCN)c2c1 [5-Nonyloxytryptamine hydrochloride] | 0.699 ± 0.089
7 | COc1ccc(CCN)cc1OC [Homoveratrylamine] | 0.772 ± 0.13
8 | O=C(O)C(Cl)Cl [Dichloroacetic acid] | 0.591 ± 0.062
9 | C[C@]12CC[C@H](O)CC1=CC[C@@H]1[C@@H]2CC[C@@]2(C)[C@H]1CC[C@]2(C)O [Methylandrostenediol] | 0.67 ± 0.17
10 | c1ccc2c(c1)Nc1ccccc1S2 [Phenothiazine] | 0.471 ± 0.066
11 | CN1CC[C@@H](c2ccc(F)cc2)[C@H](COc2ccc3c(c2)OCO3)C1 [N-Methylparoxetine] | 0.892 ± 0.41
12 | CN1C(=O)CN=C(c2ccccc2)c2cc(Cl)ccc21 [Diazepam] | 0.663 ± 0.16

same assay, conditions: priming compound concentration 1.7 µM

Row | SMILES | transgenic luciferase activity
13 | COC(=O)N1CCN(C(=O)Cc2ccc(Cl)c(Cl)c2)C(CN2CCCC2)C1 (configuration not stated) | 0.834 ± 0.042
14 | c1ccc(Cn2ccnc2)cc1 [Benzylimidazole] | 1.19 ± 0.079
15 | O=C1CN=C(c2ccccc2)c2cc([N+](=O)[O-])ccc2N1 [Nitrazepam] | 0.632 ± 0.13
16 | C[C@]12CC[C@H](O)CC1=CC[C@@H]1[C@@H]2CC[C@]2(C)C(=O)CC[C@@H]12 [Dehydroepiandrosterone] | 0.575 ± 0.13
17 | O=C1CC[C@@]2(O)[C@H]3Cc4ccc(O)c5c4[C@@]2(CCN3CC2CC2)[C@H]1O5 [Naltrexone hydrochloride] | 0.737 ± 0.022
18 | N=C(NCc1ccc(Cl)cc1)SCCCc1c[nH]cn1 [Clobenpropit] | 0.877 ± 0.2
19 | C=C(C)[C@@H]1[C@H]2OC(=O)[C@@H]1[C@]1(O)C[C@H]3O[C@]34C(=O)O[C@H]2[C@]14C.CC(C)(O)[C@@H]1[C@H]2OC(=O)[C@@H]1[C@]1(O)C[C@H]3O[C@]34C(=O)O[C@H]2[C@]14C [Picrotin - Picrotoxinin] | 0.76 ± 0.038
20 | C[C@]12Cc3c[nH]nc3C[C@@H]1CC[C@@H]1[C@@H]2CC[C@@]2(C)[C@H]1CC[C@]2(C)O [Stanozolol] | 1.12 ± 0.42
21 | C[N+]1(C)CCCC(OC(=O)C(O)(c2ccccc2)c2ccccc2)C1 (configuration not stated) [Mepenzolate bromide] | 0.301 ± 0.023
22 | CN[C@@H]1C[C@@H](c2ccc(Cl)c(Cl)c2)c2ccccc21 [Indatraline hydrochloride] | 0.6 ± 0.036
23 | C#CCN(C)[C@H](C)Cc1ccccc1 [Selegiline hydrochloride] | 0.439 ± 0.039
24 | C[C@]12CC[C@H]3[C@@H](CCC4=CC(=O)CC[C@@]43C)[C@@H]1CC[C@@H]2O [Testosterone] | 0.8 ± 0.16
25 | C[C@]12C/C(=C/O)C(=O)C[C@@H]1CC[C@@H]1[C@@H]2CC[C@@]2(C)[C@H]1CC[C@]2(C)O [Oxymetholone] | 1.53 ± 0.17
26 | FC(F)(F)c1cccc(N2CCNCC2)c1 [TFMPP hydrochloride] | 0.59 ± 0.12
27 | CN(C)C(=O)Oc1ccc[n+](C)c1 [Pyridostigmine bromide] | 0.577 ± 0.067
28 | Oc1cc(Cl)ccc1Oc1ccc(Cl)cc1Cl [Triclosan] | 0.659 ± 0.35
29 | CCOC(=O)C1(c2ccccc2)CCN(CCC(C#N)(c2ccccc2)c2ccccc2)CC1 [Diphenoxylate hydrochloride] | 1.24 ± 0.082
30 | CCCCC/C=C\C/C=C\C/C=C\C/C=C\CCCC(=O)Nc1ccc(O)cc1 | 0.637 ± 0.033
31 | CCCCCCCCCOc1ccc2[nH]cc(CCN)c2c1 [5-Nonyloxytryptamine hydrochloride] | 1.486 ± 0.0041
32 | COc1ccc(CCN)cc1OC [Homoveratrylamine] | 0.888 ± 0.11
33 | O=C(O)C(Cl)Cl [Dichloroacetic acid] | 0.889 ± 0.056
34 | C[C@]12CC[C@H](O)CC1=CC[C@@H]1[C@@H]2CC[C@@]2(C)[C@H]1CC[C@]2(C)O [Methylandrostenediol] | 0.72 ± 0.1
35 | c1ccc2c(c1)Nc1ccccc1S2 [Phenothiazine] | 1.13 ± 0.42
36 | CN1CC[C@@H](c2ccc(F)cc2)[C@H](COc2ccc3c(c2)OCO3)C1 [N-Methylparoxetine] | 0.675 ± 0.085
37 | CN1C(=O)CN=C(c2ccccc2)c2cc(Cl)ccc21 [Diazepam] | 0.91 ± 0.079

same assay, conditions: priming compound concentration 13 µM

Row | SMILES | transgenic luciferase activity
38 | COC(=O)N1CCN(C(=O)Cc2ccc(Cl)c(Cl)c2)C(CN2CCCC2)C1 (configuration not stated) | 0.73 ± 0.15
39 | c1ccc(Cn2ccnc2)cc1 [Benzylimidazole] | 0.843 ± 0.23
40 | O=C1CN=C(c2ccccc2)c2cc([N+](=O)[O-])ccc2N1 [Nitrazepam] | 0.495 ± 0.04
41 | C[C@]12CC[C@H](O)CC1=CC[C@@H]1[C@@H]2CC[C@]2(C)C(=O)CC[C@@H]12 [Dehydroepiandrosterone] | 0.887 ± 0.34
42 | O=C1CC[C@@]2(O)[C@H]3Cc4ccc(O)c5c4[C@@]2(CCN3CC2CC2)[C@H]1O5 [Naltrexone hydrochloride] | 0.573 ± 0.096
43 | N=C(NCc1ccc(Cl)cc1)SCCCc1c[nH]cn1 [Clobenpropit] | 0.819 ± 0.3
44 | C=C(C)[C@@H]1[C@H]2OC(=O)[C@@H]1[C@]1(O)C[C@H]3O[C@]34C(=O)O[C@H]2[C@]14C.CC(C)(O)[C@@H]1[C@H]2OC(=O)[C@@H]1[C@]1(O)C[C@H]3O[C@]34C(=O)O[C@H]2[C@]14C [Picrotin - Picrotoxinin] | 1.93 ± 1.4
45 | C[C@]12Cc3c[nH]nc3C[C@@H]1CC[C@@H]1[C@@H]2CC[C@@]2(C)[C@H]1CC[C@]2(C)O [Stanozolol] | 0.699 ± 0.21
46 | CN[C@@H]1C[C@@H](c2ccc(Cl)c(Cl)c2)c2ccccc21 [Indatraline hydrochloride] | 0.741 ± 0.11
47 | C#CCN(C)[C@H](C)Cc1ccccc1 [Selegiline hydrochloride] | 0.79 ± 0.25
48 | C[C@]12CC[C@H]3[C@@H](CCC4=CC(=O)CC[C@@]43C)[C@@H]1CC[C@@H]2O [Testosterone] | 0.961 ± 0.33
49 | C[C@]12C/C(=C/O)C(=O)C[C@@H]1CC[C@@H]1[C@@H]2CC[C@@]2(C)[C@H]1CC[C@]2(C)O [Oxymetholone] | 0.532 ± 0.085
50 | FC(F)(F)c1cccc(N2CCNCC2)c1 [TFMPP hydrochloride] | 0.71 ± 0.19
51 | CN(C)C(=O)Oc1ccc[n+](C)c1 [Pyridostigmine bromide] | 0.475 ± 0.082
52 | CCOC(=O)c1cncn1[C@H](C)c1ccccc1 [Etomidate] | 1.27 ± 0.38
53 | CCOC(=O)C1(c2ccccc2)CCN(CCC(C#N)(c2ccccc2)c2ccccc2)CC1 [Diphenoxylate hydrochloride] | 0.663 ± 0.18
54 | CCCCC/C=C\C/C=C\C/C=C\C/C=C\CCCC(=O)Nc1ccc(O)cc1 | 1.04 ± 0.2
55 | CCCCCCCCCOc1ccc2[nH]cc(CCN)c2c1 [5-Nonyloxytryptamine hydrochloride] | 0.00323 ± 0.0024
56 | COc1ccc(CCN)cc1OC [Homoveratrylamine] | 0.91 ± 0.26
57 | O=C(O)C(Cl)Cl [Dichloroacetic acid] | 0.913 ± 0.26
58 | C[C@]12CC[C@H](O)CC1=CC[C@@H]1[C@@H]2CC[C@@]2(C)[C@H]1CC[C@]2(C)O [Methylandrostenediol] | 0.726 ± 0.19
59 | C=C(C)CN1CC[C@@]23c4c5ccc(O)c4O[C@H]2c2[nH]c4ccccc4c2C[C@]3(O)C1C5 [SDM25N hydrochloride] | 1.08 ± 0.25
60 | c1ccc2c(c1)Nc1ccccc1S2 [Phenothiazine] | 1.77 ± 0.29
61 | CN1CC[C@@H](c2ccc(F)cc2)[C@H](COc2ccc3c(c2)OCO3)C1 [N-Methylparoxetine] | 0.558 ± 0.018
62 | CN1C(=O)CN=C(c2ccccc2)c2cc(Cl)ccc21 [Diazepam] | 0.991 ± 0.28
